Measurements as given in US20080153754A1.
No constants are given. Whether binding was seen depends on the method and setting. Binding seen in cells or lysates may run through a third protein. Some binding calls cover weakened binding; strength is not graded here.

Protein sequences, listed by entry. Tags and fused reporters are not part of them.
UniProt P09560: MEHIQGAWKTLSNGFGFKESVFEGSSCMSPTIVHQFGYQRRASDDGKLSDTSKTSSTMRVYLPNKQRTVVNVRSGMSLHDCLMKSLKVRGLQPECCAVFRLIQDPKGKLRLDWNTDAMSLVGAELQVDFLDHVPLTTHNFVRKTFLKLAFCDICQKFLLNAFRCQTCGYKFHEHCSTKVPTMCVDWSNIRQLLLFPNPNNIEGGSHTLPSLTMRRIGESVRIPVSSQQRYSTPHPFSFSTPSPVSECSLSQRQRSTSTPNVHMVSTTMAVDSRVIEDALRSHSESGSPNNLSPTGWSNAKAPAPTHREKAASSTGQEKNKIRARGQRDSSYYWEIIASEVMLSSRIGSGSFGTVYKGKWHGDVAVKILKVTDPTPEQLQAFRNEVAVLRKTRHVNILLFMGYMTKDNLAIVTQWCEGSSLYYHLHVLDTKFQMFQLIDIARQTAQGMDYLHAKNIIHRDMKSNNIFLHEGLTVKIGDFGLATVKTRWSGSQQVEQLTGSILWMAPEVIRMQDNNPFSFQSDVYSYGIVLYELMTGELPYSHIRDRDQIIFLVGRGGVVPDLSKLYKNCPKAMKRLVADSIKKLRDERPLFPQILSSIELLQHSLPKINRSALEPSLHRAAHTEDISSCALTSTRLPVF

How the values were obtained:
[1] = biological target: raf (Xenopus laevis) (UniProt P09560); experiment: co-immunoprecipitation with anti-Ha-ras from insulin-matured oocytes, blot (FIG. 4B)
[2] = biological target: raf (Xenopus laevis) (UniProt P09560); experiment: co-immunoprecipitation with anti-Ha-ras from insulin-matured oocytes, blot with anti-raf (FIG. 4B)

## endogenous Ha-ras-p21 (insulin-activated wild-type ras-p21 of the oocytes) (from UniProt Q8UUZ4 1-186)
[1]
  binding: binds
[2]
  binding: binds
